Test: Pharmacokinetics in plasma, brain and different segments of spinal cord in rat model
Details: single dose 8 mg/kg (riluzole equivalent)

Nc1nc2ccc(OC(F)(F)F)cc2s1 [Riluzole, riluzole]
absorption after I.P. administration: readily absorbed

Source: US9434704B2, “Compositions and methods for the treatment of neurological degenerative disorders” (CELLIX BIO PRIVATE LIMITED, priority 2012, dated 2016)
